These are yes or no findings as the source states them, for the method shown. Some entries that bind do so weakly or less than the wild type.

By UniProt entry, the sequences of proteins in these tests, tags left out. Where a name states a change or a piece, a line headed by the entry shows the natural chain unless it says otherwise.
UniProt Q9NYJ7: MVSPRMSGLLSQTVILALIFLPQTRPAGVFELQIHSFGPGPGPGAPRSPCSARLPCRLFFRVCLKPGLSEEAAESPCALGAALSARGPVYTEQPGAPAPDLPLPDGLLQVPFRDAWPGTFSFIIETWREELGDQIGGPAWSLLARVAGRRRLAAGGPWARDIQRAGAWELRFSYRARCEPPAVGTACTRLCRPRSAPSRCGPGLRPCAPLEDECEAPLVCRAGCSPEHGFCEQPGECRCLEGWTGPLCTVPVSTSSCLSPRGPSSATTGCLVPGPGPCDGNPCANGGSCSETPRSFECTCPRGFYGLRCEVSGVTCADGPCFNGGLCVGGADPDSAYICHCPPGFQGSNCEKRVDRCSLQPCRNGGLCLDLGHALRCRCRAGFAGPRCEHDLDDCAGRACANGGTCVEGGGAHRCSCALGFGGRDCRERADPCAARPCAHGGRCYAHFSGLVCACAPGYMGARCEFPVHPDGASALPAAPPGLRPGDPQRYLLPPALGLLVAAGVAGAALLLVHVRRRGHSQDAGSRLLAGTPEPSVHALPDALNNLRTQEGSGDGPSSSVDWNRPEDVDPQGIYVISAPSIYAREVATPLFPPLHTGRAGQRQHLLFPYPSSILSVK

For the assay, the target named is human DLL3 (human) (UniProt Q9NYJ7). The assay is described as follows: screen on immobilized hDLL3 or h293-hDLL3 cells.

B1: SC16.31 (antibody, V domains shown)
VH: EVQLQQSGPELVKPGASVKISCKASGYSFSRFYMHWVKQSPENSLEWIGEINPSTGGTSYNQKFKGKATLTVDKSSSTAYMQLKSLTSEESAVYYCTRGYGSNWYFDVWGAGTTVTVST
VL: DIVLTQSPLSLPVNIGDQASISCKSTKSLLNSDGFTYLDWYLQRPGQSPQFLIYLVSNRFSGVPDRFSGSGSGTDFTLKISRVEAEDLGVYYCFQSNYLPLTFGAGTKLELR
As for B1, the binding entry is reported as “binds”.

Values taken from patent US20190201542A1, “ANTI-DLL3 DRUG CONJUGATES FOR TREATING TUMORS AT RISK OF NEUROENDOCRINE TRANSITION” (ABBVIE STEMCENTRX LLC, priority 2016, published 2019).
